The values below come from US20030153081A1 (priority 1999, published 2003).

For part of these data: Strings that start with PEPTIDE1 are HELM notation: dots part the residues, brackets hold end groups and non-standard residues.

The nature of data set [1]: general procedure: Fmoc solid-phase peptide synthesis; Gly-Wang resin; HBTU/HOBt. The settings on record: whole synthesis, scale 0.03 mmol.
Data set [2] is described as follows: general procedure: Fmoc solid-phase peptide synthesis; preloaded L-Pro-2-chlorotrityl resin; HBTU/HOBt. The following applies: whole synthesis, scale 0.1 mmol.
Setting [3] is: HPLC analysis, elution monitored at 220-230 nm.

Take “PEPTIDE1{M.R.R.A.H.H.R.R.R.R.A.S.H.R.R.M.R.G.G}$$$$V2.0”: the “final HPLC purity” value in data set [1] (setting [3]) is recorded as greater than 95%. Besides, in data set [1] (overall), the isolated mass is recorded as 65 mg and the isolated yield was determined as 80%.
As for “NH2—Met—Ala—Pro—Lys—Arg—Lys—Ser—Gly—Val—Ser—Lys—Cys—Glu—Thr—Lys—Cys—Thr—Pro—Pro—OH (MAPKRKSGVSKCETKCTPP; printed: Met—Ala—Pro—Lys—Arg—Lys—Ser—Gly—Val—Ser—Lys—Cys—Glu—Thr—Lys—Cys—Thr—Pro—Pro—)”, the “final HPLC purity” value in data set [2] (setting [3]) is on record as greater than 95%. In addition, in data set [2] (overall), the isolated mass was 32 mg and the isolated yield worked out at 15%.
